The other results are listed elsewhere or left out. Small differences around the control level are noise.
Compound: CN[C@@H]1C[C@H]2O[C@@](C)([C@@H]1OC)n1c3ccccc3c3c4c(c5c6ccccc6n2c5c31)C(=O)NC4 [staurosporine]
Assay: log2 fold change of tryptic peptide abundance, ligand vs vehicle (limited proteolysis) (log2 ratio); higher = more trypsin-susceptible (destabilized)
Details: ligand concentration: 20 uM; sample: mouse liver crude lysate; replicate design: treated separately

The chains behind the UniProt entries cited, without tags or fusion partners. Where a name states a change or a piece, a line headed by the entry shows the natural chain unless it says otherwise.
UniProt P27808: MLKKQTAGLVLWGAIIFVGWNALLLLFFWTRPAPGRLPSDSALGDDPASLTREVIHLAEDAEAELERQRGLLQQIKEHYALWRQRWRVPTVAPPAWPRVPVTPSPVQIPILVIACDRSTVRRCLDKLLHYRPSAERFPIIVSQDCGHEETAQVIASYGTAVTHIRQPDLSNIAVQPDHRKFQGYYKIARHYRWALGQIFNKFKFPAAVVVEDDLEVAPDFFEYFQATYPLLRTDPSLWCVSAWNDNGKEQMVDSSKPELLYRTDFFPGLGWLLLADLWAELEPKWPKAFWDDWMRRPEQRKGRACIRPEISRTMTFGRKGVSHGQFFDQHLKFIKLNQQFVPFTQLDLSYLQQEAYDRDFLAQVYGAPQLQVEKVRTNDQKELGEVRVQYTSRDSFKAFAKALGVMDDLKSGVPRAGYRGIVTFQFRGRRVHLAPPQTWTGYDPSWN
UniProt P26450, whole entry: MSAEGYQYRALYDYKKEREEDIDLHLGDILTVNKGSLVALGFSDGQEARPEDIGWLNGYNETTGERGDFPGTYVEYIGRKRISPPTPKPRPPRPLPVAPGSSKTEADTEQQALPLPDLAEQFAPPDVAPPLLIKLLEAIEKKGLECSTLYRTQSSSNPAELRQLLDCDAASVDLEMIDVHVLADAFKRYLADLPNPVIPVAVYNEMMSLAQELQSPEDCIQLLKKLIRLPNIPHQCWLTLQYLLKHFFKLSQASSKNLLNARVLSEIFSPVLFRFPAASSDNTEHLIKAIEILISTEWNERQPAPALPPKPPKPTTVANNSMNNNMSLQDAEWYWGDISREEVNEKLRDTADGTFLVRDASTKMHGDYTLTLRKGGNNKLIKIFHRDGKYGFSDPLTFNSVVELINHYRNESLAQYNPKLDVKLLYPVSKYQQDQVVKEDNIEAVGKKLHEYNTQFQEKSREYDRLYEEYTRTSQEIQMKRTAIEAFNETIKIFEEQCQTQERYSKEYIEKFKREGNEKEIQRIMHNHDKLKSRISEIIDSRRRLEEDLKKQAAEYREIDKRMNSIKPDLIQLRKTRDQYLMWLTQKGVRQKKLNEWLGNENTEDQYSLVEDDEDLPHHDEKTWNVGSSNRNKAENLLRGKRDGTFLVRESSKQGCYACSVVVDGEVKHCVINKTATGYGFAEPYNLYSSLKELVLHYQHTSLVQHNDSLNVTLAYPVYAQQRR
UniProt P20029: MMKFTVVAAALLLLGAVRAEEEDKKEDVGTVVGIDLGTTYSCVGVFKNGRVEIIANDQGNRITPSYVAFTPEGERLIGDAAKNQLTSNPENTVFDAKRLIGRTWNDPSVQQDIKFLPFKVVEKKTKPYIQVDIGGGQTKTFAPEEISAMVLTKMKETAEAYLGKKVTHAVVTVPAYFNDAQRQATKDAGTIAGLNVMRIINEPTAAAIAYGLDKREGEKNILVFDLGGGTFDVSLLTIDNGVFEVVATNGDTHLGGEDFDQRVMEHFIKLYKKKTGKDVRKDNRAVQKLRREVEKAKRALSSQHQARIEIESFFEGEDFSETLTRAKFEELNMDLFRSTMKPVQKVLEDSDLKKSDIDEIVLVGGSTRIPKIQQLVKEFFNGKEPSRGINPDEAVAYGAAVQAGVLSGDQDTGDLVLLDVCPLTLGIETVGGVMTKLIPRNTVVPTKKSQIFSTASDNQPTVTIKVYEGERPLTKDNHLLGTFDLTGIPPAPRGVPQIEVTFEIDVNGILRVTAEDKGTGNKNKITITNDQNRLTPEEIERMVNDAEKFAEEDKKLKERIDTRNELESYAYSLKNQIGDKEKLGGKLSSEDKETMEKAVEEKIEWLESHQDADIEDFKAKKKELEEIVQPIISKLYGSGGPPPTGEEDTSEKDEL
UniProt P28798: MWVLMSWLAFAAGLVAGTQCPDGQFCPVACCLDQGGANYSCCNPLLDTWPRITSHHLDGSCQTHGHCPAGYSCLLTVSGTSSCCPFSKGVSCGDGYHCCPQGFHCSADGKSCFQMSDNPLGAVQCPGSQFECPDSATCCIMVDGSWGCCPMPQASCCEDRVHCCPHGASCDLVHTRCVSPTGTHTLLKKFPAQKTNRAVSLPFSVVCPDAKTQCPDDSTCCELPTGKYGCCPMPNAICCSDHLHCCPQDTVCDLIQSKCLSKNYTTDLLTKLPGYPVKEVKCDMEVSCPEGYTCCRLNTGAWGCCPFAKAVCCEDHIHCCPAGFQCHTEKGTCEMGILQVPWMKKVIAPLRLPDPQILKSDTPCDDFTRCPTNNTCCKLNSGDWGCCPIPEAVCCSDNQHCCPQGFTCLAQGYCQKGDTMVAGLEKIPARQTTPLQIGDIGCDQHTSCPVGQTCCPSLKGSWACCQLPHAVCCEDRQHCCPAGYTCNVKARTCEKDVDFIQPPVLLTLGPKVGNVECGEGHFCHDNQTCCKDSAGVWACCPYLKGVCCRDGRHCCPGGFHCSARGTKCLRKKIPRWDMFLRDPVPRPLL
UniProt P26043, whole entry: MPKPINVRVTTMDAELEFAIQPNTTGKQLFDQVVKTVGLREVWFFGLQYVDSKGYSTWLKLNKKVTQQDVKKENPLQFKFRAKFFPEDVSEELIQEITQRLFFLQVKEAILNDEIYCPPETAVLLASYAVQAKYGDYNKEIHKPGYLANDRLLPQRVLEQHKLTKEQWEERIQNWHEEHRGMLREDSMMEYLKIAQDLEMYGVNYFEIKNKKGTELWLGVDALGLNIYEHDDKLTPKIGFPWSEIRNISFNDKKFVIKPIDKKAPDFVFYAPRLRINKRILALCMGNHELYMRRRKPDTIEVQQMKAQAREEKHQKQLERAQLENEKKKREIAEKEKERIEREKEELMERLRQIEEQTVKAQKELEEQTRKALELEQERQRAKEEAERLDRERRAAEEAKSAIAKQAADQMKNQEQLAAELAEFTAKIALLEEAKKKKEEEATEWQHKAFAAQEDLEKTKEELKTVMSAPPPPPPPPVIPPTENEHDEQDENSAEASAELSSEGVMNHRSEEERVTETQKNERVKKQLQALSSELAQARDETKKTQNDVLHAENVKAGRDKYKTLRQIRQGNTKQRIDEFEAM
UniProt P17879, whole entry: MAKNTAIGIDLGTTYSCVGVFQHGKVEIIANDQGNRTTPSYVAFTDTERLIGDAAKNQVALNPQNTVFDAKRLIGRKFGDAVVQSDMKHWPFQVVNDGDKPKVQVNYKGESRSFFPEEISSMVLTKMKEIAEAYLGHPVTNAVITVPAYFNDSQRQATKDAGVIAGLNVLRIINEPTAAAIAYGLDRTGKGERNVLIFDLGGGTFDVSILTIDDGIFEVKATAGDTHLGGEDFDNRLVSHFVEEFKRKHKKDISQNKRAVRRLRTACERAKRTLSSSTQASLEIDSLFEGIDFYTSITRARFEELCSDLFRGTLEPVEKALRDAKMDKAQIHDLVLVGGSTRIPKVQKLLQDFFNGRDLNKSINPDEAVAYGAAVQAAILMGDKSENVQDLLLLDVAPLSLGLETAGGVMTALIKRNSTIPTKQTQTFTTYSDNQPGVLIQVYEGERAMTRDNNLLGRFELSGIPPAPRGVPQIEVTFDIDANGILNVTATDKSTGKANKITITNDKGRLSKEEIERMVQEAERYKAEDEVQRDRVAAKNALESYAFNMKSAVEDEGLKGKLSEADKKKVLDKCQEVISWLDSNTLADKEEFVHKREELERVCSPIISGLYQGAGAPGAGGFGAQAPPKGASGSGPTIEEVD
UniProt P27786: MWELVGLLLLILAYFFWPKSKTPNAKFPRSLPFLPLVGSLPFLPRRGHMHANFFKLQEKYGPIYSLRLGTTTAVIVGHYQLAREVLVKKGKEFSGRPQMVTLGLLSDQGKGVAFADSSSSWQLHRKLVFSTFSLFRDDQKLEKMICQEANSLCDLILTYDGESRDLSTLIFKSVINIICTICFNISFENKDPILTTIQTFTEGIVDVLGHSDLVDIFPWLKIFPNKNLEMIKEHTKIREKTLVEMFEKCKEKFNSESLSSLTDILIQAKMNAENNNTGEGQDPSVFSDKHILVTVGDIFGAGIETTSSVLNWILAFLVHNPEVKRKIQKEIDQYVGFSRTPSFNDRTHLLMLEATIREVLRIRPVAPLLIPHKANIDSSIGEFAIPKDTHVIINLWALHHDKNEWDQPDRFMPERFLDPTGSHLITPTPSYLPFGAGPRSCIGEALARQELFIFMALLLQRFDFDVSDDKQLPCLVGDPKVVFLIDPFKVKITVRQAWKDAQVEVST
UniProt P31001, whole entry: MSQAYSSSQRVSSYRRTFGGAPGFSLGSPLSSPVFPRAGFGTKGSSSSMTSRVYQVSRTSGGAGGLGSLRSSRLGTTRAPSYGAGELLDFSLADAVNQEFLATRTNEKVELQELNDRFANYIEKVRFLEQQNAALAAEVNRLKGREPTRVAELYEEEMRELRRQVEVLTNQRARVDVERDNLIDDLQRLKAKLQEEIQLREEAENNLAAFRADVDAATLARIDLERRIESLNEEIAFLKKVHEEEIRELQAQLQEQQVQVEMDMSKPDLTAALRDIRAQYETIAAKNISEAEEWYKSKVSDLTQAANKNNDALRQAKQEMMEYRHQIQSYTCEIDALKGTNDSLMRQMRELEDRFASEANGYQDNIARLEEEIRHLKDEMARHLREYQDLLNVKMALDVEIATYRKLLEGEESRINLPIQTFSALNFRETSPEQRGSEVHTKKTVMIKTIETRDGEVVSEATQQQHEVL
UniProt P31651: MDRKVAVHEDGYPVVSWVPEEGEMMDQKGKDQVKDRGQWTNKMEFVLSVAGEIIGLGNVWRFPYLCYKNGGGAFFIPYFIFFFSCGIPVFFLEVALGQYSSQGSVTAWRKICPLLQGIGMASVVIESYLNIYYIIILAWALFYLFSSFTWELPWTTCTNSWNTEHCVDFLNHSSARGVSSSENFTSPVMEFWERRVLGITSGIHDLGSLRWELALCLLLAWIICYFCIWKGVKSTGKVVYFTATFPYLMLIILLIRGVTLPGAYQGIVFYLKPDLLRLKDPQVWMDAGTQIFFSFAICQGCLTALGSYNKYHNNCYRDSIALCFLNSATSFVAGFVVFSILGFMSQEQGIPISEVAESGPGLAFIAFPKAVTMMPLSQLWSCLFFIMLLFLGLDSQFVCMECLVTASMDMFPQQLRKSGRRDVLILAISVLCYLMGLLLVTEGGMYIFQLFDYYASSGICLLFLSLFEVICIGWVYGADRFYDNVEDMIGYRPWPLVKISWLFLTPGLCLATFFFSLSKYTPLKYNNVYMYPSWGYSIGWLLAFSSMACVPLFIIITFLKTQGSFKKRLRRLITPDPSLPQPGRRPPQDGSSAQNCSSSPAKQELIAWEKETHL
UniProt P25425: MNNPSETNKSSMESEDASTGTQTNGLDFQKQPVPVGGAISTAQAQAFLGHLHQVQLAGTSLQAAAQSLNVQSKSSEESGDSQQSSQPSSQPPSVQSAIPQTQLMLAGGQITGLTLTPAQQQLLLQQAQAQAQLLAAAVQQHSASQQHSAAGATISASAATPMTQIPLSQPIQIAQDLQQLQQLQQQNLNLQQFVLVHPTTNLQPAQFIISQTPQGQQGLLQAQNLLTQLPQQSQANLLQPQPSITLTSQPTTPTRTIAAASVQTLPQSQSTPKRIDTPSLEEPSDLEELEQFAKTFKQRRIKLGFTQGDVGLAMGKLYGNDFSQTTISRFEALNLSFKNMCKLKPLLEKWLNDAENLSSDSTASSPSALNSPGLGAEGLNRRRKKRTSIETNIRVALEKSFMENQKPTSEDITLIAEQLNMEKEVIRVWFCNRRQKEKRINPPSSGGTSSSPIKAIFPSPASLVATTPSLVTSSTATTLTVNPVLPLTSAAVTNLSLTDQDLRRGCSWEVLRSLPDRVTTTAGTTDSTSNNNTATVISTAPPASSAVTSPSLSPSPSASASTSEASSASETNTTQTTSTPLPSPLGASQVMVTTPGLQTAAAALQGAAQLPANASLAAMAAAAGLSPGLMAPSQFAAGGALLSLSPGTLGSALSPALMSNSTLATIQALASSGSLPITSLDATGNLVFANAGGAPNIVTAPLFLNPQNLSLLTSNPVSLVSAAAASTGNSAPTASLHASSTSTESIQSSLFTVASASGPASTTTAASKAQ
UniProt P16330: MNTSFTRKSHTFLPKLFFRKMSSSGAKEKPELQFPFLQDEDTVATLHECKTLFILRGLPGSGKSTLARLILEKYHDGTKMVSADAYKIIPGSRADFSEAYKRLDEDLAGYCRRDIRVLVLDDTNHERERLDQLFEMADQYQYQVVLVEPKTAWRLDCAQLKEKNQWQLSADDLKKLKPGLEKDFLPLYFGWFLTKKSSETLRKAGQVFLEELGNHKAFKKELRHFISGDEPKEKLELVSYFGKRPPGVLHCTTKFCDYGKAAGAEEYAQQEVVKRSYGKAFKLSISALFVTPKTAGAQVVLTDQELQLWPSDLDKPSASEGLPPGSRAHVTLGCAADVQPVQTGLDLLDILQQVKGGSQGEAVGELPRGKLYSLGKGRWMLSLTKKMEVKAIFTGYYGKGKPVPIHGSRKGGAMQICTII
UniProt P17257: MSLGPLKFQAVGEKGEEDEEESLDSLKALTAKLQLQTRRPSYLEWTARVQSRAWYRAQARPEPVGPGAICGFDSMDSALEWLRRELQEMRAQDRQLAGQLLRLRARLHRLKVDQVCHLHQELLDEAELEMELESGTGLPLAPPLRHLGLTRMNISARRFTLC

Target	log2 fold change
UniProt P27808 (peptide sequence: KGVSHGQFFDQHLK, peptide start residue: 319)	-0.949
UniProt P26450 (peptide sequence: IMHNHDKLK, peptide start residue: 524)	1.06
UniProt P28235 (peptide sequence: ALAAIEHQMAK, peptide start residue: 126)	-0.0712
UniProt P32067 (peptide sequence: VLEGHAEKEALKK, peptide start residue: 304)	0.159
UniProt P26231 (peptide sequence: ERSDALNSAIDKMTK, peptide start residue: 359)	-0.462
UniProt P20029 (peptide sequence: NKITITNDQNR, peptide start residue: 523)	-0.907
UniProt P28798 (peptide sequence: CVSPTGTHTLLK, peptide start residue: 177)	0.252
UniProt P25688 (peptide sequence: NTVHVLAK, peptide start residue: 73)	-0.273
UniProt P26043 (peptide sequence: ELEEQTR, peptide start residue: 364)	-0.193
UniProt P33766 (peptide sequence: LIHSLPASLER, peptide start residue: 323)	0.092
UniProt P23506 (peptide sequence: MKPLMGVIYVPLTDKEK, peptide start residue: 205)	-0.204
UniProt P17879 (peptide sequence: MDKAQIHDLVLVGGSTR, peptide start residue: 326)	0.615
UniProt P27786 (peptide sequence: YGPIYSLR, peptide start residue: 60)	-0.237
UniProt P31001 (peptide sequence: NISEAEEWYK, peptide start residue: 287)	-0.0851
UniProt P32233 (peptide sequence: TTVEDFCMK, peptide start residue: 316)	-0.679
UniProt P31651 (peptide sequence: QELIAWEKETHL, peptide start residue: 603)	-0.277
UniProt P27546 (peptide sequence: VSYSHIQSKCGSKDNIK, peptide start residue: 972)	1.03
UniProt P28700 (peptide sequence: VLTELVSK, peptide start residue: 354)	0.291
UniProt P29341 (peptide sequence: EFTNVYIK, peptide start residue: 189)	0.205
UniProt P20918 (peptide sequence: KQLAAGGVSDCLAKCEGETDFVCR, peptide start residue: 39)	-0.463
UniProt P25425 (peptide sequence: TSIETNIR, peptide start residue: 387)	-0.0817
UniProt P26262 (peptide sequence: ATIPLVPNEECQKK, peptide start residue: 538)	0.206
UniProt P16330 (peptide sequence: TAWRLDCAQLKEK, peptide start residue: 151)	-0.579
UniProt P33242 (peptide sequence: KAQIRANGFK, peptide start residue: 110)	-0.129
UniProt P25799 (peptide sequence: QLTEDTR, peptide start residue: 806)	-0.272
UniProt P29351 (peptide sequence: DGTIIHLK, peptide start residue: 90)	0.244
UniProt P17257 (peptide sequence: QLAGQLLR, peptide start residue: 95)	-0.106
UniProt P35278 (peptide sequence: KLPKNEPQNAAGAPGR, peptide start residue: 181)	-0.243

Two entries picked at random from those above:
Target	log2 fold change
UniProt P20029 (peptide sequence: NKITITNDQNR, peptide start residue: 523)	-0.907
UniProt P25688 (peptide sequence: NTVHVLAK, peptide start residue: 73)	-0.273

— the supplement of paper PMC12819154, “High-throughput peptide-centric local stability assay extends protein–ligand identification to membrane proteins, tissues and bacteria” (Nature Structural & Molecular Biology, 2025)
